No constants are given. Whether binding was seen depends on the method and setting. Binding seen in cells or lysates may run through a third protein. Some binding calls cover weakened binding; strength is not graded here. Values belong to the molecule of their own block, whether it stands above or below them.
Target: mDia1 (mouse (endogenous in brain synaptosomes)) (UniProt O08808)
Assay: co-IP; endogenous mDia1 precipitated with anti-mDia1 antibody (control: mouse IgG) from detergent-extracted (1% CHAPS, 20 mM HEPES, 130 mM NaCl, 2 mM MgCl2, pH 7.4) mouse synaptosomes (P2' fraction), Protein A/G magnetic beads, 4 °C; immunoblotting

Sequences of proteins named here, by UniProt entry; tags and fusion partners are left off.
UniProt O08808: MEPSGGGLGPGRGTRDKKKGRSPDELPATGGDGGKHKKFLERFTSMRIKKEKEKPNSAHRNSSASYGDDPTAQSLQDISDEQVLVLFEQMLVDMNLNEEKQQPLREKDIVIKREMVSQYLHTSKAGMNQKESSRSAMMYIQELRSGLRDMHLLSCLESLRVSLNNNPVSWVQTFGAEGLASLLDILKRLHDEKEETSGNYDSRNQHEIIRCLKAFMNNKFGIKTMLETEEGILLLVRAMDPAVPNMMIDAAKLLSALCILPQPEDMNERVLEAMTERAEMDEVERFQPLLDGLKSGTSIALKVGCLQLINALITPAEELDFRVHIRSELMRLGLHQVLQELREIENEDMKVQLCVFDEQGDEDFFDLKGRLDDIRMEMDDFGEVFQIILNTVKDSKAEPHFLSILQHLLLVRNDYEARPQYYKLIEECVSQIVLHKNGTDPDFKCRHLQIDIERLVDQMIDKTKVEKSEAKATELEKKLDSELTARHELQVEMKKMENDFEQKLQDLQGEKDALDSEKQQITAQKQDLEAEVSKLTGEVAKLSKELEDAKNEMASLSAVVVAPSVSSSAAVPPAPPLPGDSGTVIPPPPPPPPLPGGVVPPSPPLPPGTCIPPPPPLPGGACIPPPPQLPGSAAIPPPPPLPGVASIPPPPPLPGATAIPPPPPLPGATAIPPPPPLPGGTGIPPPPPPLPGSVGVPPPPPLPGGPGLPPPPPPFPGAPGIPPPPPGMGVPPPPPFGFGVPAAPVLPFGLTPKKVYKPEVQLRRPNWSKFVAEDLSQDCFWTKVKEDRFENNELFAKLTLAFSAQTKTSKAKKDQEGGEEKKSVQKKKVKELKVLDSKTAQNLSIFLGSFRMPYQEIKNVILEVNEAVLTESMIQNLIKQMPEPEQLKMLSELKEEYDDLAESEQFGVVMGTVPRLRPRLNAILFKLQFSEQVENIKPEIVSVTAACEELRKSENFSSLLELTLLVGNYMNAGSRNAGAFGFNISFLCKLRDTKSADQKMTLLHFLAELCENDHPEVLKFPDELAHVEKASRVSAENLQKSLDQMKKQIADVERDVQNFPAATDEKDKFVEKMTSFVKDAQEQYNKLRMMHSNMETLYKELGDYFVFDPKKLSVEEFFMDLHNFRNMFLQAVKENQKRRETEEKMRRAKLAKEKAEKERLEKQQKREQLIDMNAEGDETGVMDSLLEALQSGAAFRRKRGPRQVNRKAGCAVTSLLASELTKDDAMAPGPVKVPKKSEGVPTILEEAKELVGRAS
UniProt Q61879: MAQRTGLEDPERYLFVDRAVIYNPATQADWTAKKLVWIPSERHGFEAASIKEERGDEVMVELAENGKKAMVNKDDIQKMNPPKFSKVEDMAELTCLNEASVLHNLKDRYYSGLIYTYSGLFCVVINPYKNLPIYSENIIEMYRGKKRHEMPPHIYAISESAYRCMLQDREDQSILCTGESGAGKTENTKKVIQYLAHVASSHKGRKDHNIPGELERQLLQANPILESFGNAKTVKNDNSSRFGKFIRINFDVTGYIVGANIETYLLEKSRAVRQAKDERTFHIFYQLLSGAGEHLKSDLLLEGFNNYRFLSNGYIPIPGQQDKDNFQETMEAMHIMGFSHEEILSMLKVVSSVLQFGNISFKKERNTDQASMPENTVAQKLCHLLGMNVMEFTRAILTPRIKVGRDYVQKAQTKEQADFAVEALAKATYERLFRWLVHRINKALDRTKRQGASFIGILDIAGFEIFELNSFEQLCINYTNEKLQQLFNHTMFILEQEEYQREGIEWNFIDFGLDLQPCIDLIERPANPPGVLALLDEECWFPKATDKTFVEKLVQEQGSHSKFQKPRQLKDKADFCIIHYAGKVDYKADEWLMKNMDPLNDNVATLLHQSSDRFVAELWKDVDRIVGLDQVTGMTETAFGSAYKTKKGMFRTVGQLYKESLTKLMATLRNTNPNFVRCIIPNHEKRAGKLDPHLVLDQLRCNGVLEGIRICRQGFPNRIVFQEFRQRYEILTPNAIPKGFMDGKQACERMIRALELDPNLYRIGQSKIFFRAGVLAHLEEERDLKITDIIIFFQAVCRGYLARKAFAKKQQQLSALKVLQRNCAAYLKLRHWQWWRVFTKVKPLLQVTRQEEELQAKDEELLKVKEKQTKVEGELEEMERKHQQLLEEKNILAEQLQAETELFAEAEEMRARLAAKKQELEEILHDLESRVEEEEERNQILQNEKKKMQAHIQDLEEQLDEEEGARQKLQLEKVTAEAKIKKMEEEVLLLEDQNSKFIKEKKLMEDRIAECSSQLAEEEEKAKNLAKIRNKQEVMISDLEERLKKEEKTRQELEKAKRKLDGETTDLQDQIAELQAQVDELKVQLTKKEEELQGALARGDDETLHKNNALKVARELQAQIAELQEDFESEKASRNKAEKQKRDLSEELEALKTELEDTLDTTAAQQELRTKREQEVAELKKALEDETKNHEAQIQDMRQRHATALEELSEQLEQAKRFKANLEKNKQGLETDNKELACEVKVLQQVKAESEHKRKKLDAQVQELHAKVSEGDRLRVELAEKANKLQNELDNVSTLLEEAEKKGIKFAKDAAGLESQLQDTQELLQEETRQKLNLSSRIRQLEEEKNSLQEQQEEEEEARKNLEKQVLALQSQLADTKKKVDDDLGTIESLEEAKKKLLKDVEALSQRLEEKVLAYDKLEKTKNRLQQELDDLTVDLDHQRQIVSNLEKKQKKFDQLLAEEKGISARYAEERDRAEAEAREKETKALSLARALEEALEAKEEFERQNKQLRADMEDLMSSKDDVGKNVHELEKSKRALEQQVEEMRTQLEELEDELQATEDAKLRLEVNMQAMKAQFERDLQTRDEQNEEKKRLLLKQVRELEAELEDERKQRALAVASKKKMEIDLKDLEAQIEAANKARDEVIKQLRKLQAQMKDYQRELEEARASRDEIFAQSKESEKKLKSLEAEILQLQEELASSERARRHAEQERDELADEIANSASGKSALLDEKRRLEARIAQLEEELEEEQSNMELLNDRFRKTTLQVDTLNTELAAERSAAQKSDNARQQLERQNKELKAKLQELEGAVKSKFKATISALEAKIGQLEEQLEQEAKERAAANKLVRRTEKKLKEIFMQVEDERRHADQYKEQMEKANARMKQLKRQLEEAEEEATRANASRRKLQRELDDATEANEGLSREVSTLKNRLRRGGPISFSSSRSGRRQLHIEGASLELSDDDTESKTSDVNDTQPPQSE

binding: binds
Molecule: Myosin IIB (from UniProt Q61879 1-1976)

binding: binds
B1: Dynamin1 (protein, UniProt P39053 1-867)
chain: MGNRGMEDLIPLVNRLQDAFSAIGQNADLDLPQIAVVGGQSAGKSSVLENFVGRDFLPRGSGIVTRRPLVLQLVNSTTEYAEFLHCKGKKFTDFEEVRLEIEAETDRVTGTNKGISPVPINLRVYSPHVLNLTLVDLPGMTKVPVGDQPPDIEFQIRDMLMQFVTKENCLILAVSPANSDLANSDALKIAKEVDPQGQRTIGVITKLDLMDEGTDARDVLENKLLPLRRGYIGVVNRSQKDIDGKKDITAALAAERKFFLSHPSYRHLADRMGTPYLQKVLNQQLTNHIRDTLPGLRNKLQSQLLSIEKEVDEYKNFRPDDPARKTKALLQMVQQFAVDFEKRIEGSGDQIDTYELSGGARINRIFHERFPFELVKMEFDEKELRREISYAIKNIHGIRTGLFTPDMAFETIVKKQVKKIREPCLKCVDMVISELISTVRQCTKKLQQYPRLREEMERIVTTHIREREGRTKEQVMLLIDIELAYMNTNHEDFIGFANAQQRSNQMNKKKTSGNQDEILVIRKGWLTINNIGIMKGGSKEYWFVLTAENLSWYKDDEEKEKKYMLSVDNLKLRDVEKGFMSSKHIFALFNTEQRNVYKDYRQLELACETQEEVDSWKASFLRAGVYPERVGDKEKASETEENGSDSFMHSMDPQLERQVETIRNLVDSYMAIVNKTVRDLMPKTIMHLMINNTKEFIFSELLANLYSCGDQNTLMEESAEQAQRRDEMLRMYHALKEALSIIGDINTTTVSTPMPPPVDDSWLQVQSVPAGRRSPTSSPTPQRRAPAVPPARPGSRGPAPGPPPAGSALGGAPPVPSRPGASPDPFGPPPQVPSRPNRAPPGVPSLGAWRLNSPQGKHENRAGKARL
